{
  "sequences": {"note": "Amino acid sequences for entries named in this document (tags omitted). Residues count along the entry.", "UniProt Q6PHU5, residues 74-825": "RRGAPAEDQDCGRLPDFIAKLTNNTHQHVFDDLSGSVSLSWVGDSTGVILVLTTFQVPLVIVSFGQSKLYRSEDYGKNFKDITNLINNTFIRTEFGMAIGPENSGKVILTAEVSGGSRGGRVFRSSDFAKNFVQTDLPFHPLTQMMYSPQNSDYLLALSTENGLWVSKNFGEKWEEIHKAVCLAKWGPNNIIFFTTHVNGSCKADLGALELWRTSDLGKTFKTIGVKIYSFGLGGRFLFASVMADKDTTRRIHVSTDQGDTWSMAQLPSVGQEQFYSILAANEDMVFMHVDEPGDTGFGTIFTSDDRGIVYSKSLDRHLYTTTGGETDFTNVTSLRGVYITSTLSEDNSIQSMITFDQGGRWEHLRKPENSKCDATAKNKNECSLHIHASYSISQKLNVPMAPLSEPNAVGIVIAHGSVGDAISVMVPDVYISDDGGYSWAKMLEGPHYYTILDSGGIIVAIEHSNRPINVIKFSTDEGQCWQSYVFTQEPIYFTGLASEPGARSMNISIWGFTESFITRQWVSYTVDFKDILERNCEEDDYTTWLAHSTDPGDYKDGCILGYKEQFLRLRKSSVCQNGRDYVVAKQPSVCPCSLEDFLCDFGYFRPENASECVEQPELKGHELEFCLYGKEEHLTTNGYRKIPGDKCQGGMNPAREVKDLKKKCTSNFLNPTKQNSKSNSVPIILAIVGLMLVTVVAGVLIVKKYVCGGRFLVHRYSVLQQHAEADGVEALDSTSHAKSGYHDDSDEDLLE"},
  "source": "paper PMC8572006",
  "key": {"[1]": {"biological_target": "T1, Myc-tagged mouse fatty acid-binding protein 7 (FABP7) (mouse) (UniProt P51880)", "T1 sequence": "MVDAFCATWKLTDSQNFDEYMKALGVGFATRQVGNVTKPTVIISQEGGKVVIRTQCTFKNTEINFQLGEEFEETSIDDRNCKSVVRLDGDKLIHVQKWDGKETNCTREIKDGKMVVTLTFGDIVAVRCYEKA", "assay": "co-IP; anti-Myc affinity resin on lysates of CHO-S/F cells (stably co-expressing sortilin and FABP7-Myc), sortilin detected by blot; also after 24 h treatment of the cells with conditioned HEK293 medium with 5 µg/ml apoE3 or apoE4 or blank medium"}, "[2]": {"biological_target": "T1, Myc-tagged mouse fatty acid-binding protein 7 (FABP7) (mouse)", "assay": "proximity ligation; fixed CHO-S/F cells (4% PFA), primary antibodies against sortilin and the Myc epitope in FABP7-Myc, orange PLA probes; also after 24 h with conditioned medium with 5 µg/ml apoE3 or apoE4"}},
  "note": "No constants are given. Whether binding was seen depends on the method and setting. In cells and extracts the contact can be indirect. Some entries that bind do so weakly or less than the wild type. Where a sequence is shown, tags or fusion partners need not be part of it.",
  "data": [
    {"substance": "sortilin (mouse), stably overexpressed in CHO cells (from UniProt Q6PHU5 74-825) (receptor)", "values": [
      {"measurement": "binding", "setting": "[1]", "value": "binds"},
      {"measurement": "binding", "setting": "[2]", "value": "binds"}
    ]}
  ]
}
